{
  "sequences": {"note": "Protein sequences, listed by entry. Tags and fused reporters are not part of them.", "UniProt Q07820": "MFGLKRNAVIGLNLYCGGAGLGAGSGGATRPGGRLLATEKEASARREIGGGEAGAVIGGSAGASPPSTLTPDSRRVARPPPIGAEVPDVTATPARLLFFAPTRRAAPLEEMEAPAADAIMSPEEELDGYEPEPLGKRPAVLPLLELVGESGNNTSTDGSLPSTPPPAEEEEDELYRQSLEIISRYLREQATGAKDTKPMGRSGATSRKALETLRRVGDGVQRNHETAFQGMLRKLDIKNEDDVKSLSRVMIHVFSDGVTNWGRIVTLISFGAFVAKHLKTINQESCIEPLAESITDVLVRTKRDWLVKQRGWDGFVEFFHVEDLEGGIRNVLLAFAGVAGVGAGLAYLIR", "UniProt Q7Z5L9": "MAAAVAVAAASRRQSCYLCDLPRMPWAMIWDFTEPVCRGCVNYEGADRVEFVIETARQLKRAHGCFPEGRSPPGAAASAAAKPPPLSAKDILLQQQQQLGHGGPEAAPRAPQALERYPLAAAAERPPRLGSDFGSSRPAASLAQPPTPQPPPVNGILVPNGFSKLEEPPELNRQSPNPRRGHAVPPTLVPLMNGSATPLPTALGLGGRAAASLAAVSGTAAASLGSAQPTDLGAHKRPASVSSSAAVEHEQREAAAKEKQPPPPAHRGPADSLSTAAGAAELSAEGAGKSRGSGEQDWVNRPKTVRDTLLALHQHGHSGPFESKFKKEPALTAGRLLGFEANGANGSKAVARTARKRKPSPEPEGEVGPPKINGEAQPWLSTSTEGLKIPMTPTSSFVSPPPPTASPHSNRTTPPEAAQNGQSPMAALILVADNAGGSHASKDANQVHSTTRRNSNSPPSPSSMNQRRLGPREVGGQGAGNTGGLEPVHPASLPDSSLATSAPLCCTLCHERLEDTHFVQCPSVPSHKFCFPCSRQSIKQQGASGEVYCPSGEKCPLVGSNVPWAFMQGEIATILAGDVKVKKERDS"},
  "source": "paper doi:10.1101/2025.05.22.655396",
  "molecules": {"B1": {"name": "acyl-CoA synthetase long-chain family member 1 (enzyme, UniProt P33121 1-698)", "chain": "MQAHELFRYFRMPELVDFRQYVRTLPTNTLMGFGAFAALTTFWYATRPKPLKPPCDLSMQSVEVAGSGGARRSALLDSDEPLVYFYDDVTTLYEGFQRGIQVSNNGPCLGSRKPDQPYEWLSYKQVAELSECIGSALIQKGFKTAPDQFIGIFAQNRPEWVIIEQGCFAYSMVIVPLYDTLGNEAITYIVNKAELSLVFVDKPEKAKLLLEGVENKLIPGLKIIVVMDAYGSELVERGQRCGVEVTSMKAMEDLGRANRRKPKPPAPEDLAVICFTSGTTGNPKGAMVTHRNIVSDCSAFVKATENTVNPCPDDTLISFLPLAHMFERVVECVMLCHGAKIGFFQGDIRLLMDDLKVLQPTVFPVVPRLLNRMFDRIFGQANTTLKRWLLDFASKRKEAELRSGIIRNNSLWDRLIFHKVQSSLGGRVRLMVTGAAPVSATVLTFLRAALGCQFYEGYGQTECTAGCCLTMPGDWTAGHVGAPMPCNLIKLVDVEEMNYMAAEGEGEVCVKGPNVFQGYLKDPAKTAEALDKDGWLHTGDIGKWLPNGTLKIIDRKKHIFKLAQGEYIAPEKIENIYMRSEPVAQVFVHGESLQAFLIAIVVPDVETLCSWAQKRGFEGSFEELCRNKDVKKAILEDMVRLGKDSGLKPFEQVKGITLHPELFSIDNGLLTPTMKAKRPELRNYFRSQIDDLYSTIKV"}},
  "target": "MCL1 (human (endogenous in primary AML cells)) (UniProt Q07820)",
  "assay": "affinity purification with mass spectrometry",
  "note": "No constants are given. Whether binding was seen depends on the method and setting. In cells and extracts the contact can be indirect. These calls come from enrichment with a bait or labelling near it, and not all partners need be listed.",
  "data": [
    {"molecule": "Interferon Regulatory Factor 2 Binding Protein 2 (from UniProt Q7Z5L9 1-587)", "values": [
      {"measurement": "binding", "value": "binds"}
    ]},
    {"molecule": "B1", "values": [
      {"measurement": "binding", "value": "binds"}
    ]}
  ]
}
